Source: patent US20180153850A1, “COMPOSITIONS AND METHODS FOR TREATMENT OF CANCER” (The Regents of the University of California, priority 2015, published 2018)
At least one compound was matched to its structure with a doubt left.

What was measured:
TaxR cells = experiment: Cell growth assay in TaxR cells; assay type: cell-based; conditions: 20 μM anti-androgen, alone or with 10 nM docetaxel; 24 hrs
Description: Top panel, fluorescent and phase contrast pictures are shown. Lower panel, rhodamine intake ratio. […] Cell numbers were counted after 24 hrs of treatment.
Fluorescent and phase contrast pictures are shown. Lower panel is the rhodamine intake ratio. […] Cell numbers were counted after 24 hrs of treatment. […] The numbers of colonies were counted after 3 weeks.
(§1) Cells were seeded in 12-well plates at a density of 1×10^5 cells per well. Cells were treated and total cell numbers were counted using a Coulter cell counter.

DU145-DTXR cells = experiment: Cell growth assay in DU145-DTXR cells; assay type: cell-based
Description: Top panel, fluorescent and phase contrast pictures are shown. Lower panel, rhodamine intake ratio. […] Cell numbers were counted after 24 hrs of treatment. […] Cell numbers were counted after 24 hrs of treatment. […] Tumor sizes were measured twice a week.
DU145-DTXR cells were plated in 12-well plate at 1×10^5 cells per well. […] FIG. 8A: Cell numbers were counted. FIG. 8B: Cell pictures were taken to show the cell survival inhibition.
DU145-DTXR cells were plated in 12-well plate at 1×10^5 cells per well. […] Cell numbers were counted (top panel: bicalutamide; bottom panel: enzalutamide). FIG. 9B: DU145 parental cells and DU145-DTX cells were plated in 12-well plate at 1×10^5 cells per well. […] Cell numbers were counted.
as §1

TaxR tumors = experiment: In vivo tumorigenesis assay, TaxR tumors; design: species or system SCID mice; conditions: docetaxel 10 mg/kg i.p. once a week; bicalutamide 25 mg/kg p.o. 5 days a week; 3 weeks
Description: Tumor sizes were measured twice a week. *, P<0.05. **, P<0.01. DTX, docetaxel, Bic, bicalutamide.
Tumor tissues were harvested after 3 weeks of treatment.

CC(O)(CS(=O)(=O)c1ccc(F)cc1)C(=O)Nc1ccc(C#N)c(C(F)(F)F)c1 (stereo not shown) [bicalutamide]
effect on growth of TaxR cells (TaxR cells): minimal effects
docetaxel resistance in DU145-DTXR cells (DU145-DTXR cells; 10 nM docetaxel with 0.5 μM elacridar or 20 μM bicalutamide or enzalutamide, 48 hrs): reversal of docetaxel resistance
effect on growth of DU145-DTXR cells (DU145-DTXR cells; 10 nM docetaxel, 20 μM bicalutamide, alone or combined, 24 hrs): only minimal effects
tumor growth of TaxR cells (TaxR tumors): Neither docetaxel nor bicalutamide treatment alone inhibited tumor growth
